Experimental data as given in patent EP1972624A1, “Benzoxazinones and their use as ultraviolet light absorbers” (Clariant International Ltd., priority 2007, dated 2008).

Experiments:
[1] = Artificial UV irradiation (UV-CON A, ASTM D 5208), impact on tensile strength; settings: UV absorber 0.2 %
[2] = Artificial UV irradiation (UV-CON A, ASTM D 5208), impact on elongation at break; settings: UV absorber 0.2 %
[3] = Oven aging at 120°C, impact on transparency (Table 4); settings: oven aging 120°C, UV absorber 0.2 %
[4] = Artificial UV irradiation (UV-CON A, ASTM D 5208), impact on transparency; settings: UV absorber 0.2 %

SMILES: CCCCCCCCOc1c(-c2nc3ccccc3c(=O)o2)sc2ccccc12 [(Ia)]
- Impact on tensile strength (MPa) ([1]; exposure time 0 hours): 69.5 MPa
- Impact on tensile strength (MPa) ([1]; exposure time 50 hours): 69.1 MPa
- Impact on tensile strength (MPa) ([1]; exposure time 100 hours): 70.8 MPa
- Impact on elongation at break (%) ([2]; exposure time 50 hours): 73.2%
- Impact on elongation at break (%) ([2]; exposure time 100 hours): 54.0%

SMILES: CCCCC(CC)COc1c(-c2nc3ccccc3c(=O)o2)sc2ccccc12 (stereo not shown) [(Ib)]
- Impact on transparency (%) ([3]; exposure time 0 days): 90.27%
- Impact on transparency (%) ([3]; exposure time 1 day): 90.20%
- Impact on transparency (%) ([3]; exposure time 2 days): 90.12%
- Impact on transparency (%) ([3]; exposure time 3 days): 90.04%
- Impact on transparency (%) ([4]; exposure time 0 hours): 90.28%
- Impact on transparency (%) ([4]; exposure time 50 hours): 90.21%
- Impact on transparency (%) ([4]; exposure time 100 hours): 90.20%

SMILES: COC(=O)C(=Cc1ccc(C=C(C(=O)OC)C(=O)OC)cc1)C(=O)OC [Hostavin®B-CAP]
- Impact on transparency (%) ([3]; exposure time 0 days): 90.19%
- Impact on transparency (%) ([3]; exposure time 1 day): 90.10%
- Impact on transparency (%) ([3]; exposure time 2 days): 90.07%
- Impact on transparency (%) ([3]; exposure time 3 days): 89.98%
- Impact on transparency (%) ([4]; exposure time 0 hours): 90.26%
- Impact on transparency (%) ([4]; exposure time 50 hours): 90.18%
- Impact on transparency (%) ([4]; exposure time 100 hours): 90.18%

SMILES: CCCCCCOc1ccc(-c2nc(-c3ccccc3)nc(-c3ccccc3)n2)c(O)c1 [Tinuvin®1577]
- Impact on transparency (%) ([3]; exposure time 0 days): 90.21%
- Impact on transparency (%) ([3]; exposure time 1 day): 90.14%
- Impact on transparency (%) ([3]; exposure time 2 days): 89.94%
- Impact on transparency (%) ([3]; exposure time 3 days): 89.85%
- Impact on transparency (%) ([4]; exposure time 0 hours): 90.22%
- Impact on transparency (%) ([4]; exposure time 50 hours): 90.11%
- Impact on transparency (%) ([4]; exposure time 100 hours): 90.15%

SMILES: CCCCCCCCOc1cc(-c2nc3ccccc3c(=O)o2)cc(-c2nc3ccccc3c(=O)o2)c1 [YT 35/03, reference compound]
- Impact on tensile strength (MPa) ([1]; exposure time 0 hours): 62.6 MPa
- Impact on tensile strength (MPa) ([1]; exposure time 50 hours): 66.3 MPa
- Impact on tensile strength (MPa) ([1]; exposure time 100 hours): 69.4 MPa
- Impact on elongation at break (%) ([2]; exposure time 50 hours): 68.2%
- Impact on elongation at break (%) ([2]; exposure time 100 hours): 51.2%
